Experimental data reported in article PMC9613470, “Diverse MarR bacterial regulators of auxin catabolism in the plant microbiome” (Nature Microbiology, 2022).
For at least one entry, the source does not settle the construct or the ends of the probe. A negative result means that nothing was seen under these conditions. At least one verdict rests on a figure or table, not on a statement of the authors. Where a protein sequence is shown, tags need not be part of it.

Biological target: T1, MarR_73 wild type (Variovorax paradoxus CL14) (UniProt C5CSP2)
T1 sequence (looked up, limits assumed): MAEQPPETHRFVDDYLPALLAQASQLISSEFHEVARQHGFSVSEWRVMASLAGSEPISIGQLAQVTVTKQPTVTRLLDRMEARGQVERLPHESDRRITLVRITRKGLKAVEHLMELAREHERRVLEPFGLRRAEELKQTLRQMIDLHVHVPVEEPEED
Test: ITC
Details: wild type did not bind any of the DNA oligos examined, possibly retains ligand from expression, 20 mM HEPES pH 7.4, 300 mM NaCl, 25 C, 25 uM duplex in cell, 0.5 mM protein in syringe, errors are s.e.m. of two runs, recombinant protein

“AATTCATGATTGTGGATACATTCA (double strand) [24 bp duplex]”: no binding.
